Measured values from article PMC12321389.
No constants are given. Whether binding was seen depends on the method and setting. For some assays here: In cells and extracts the contact can be indirect. Some results given as binding are weak or reduced against the parent protein; the word gives no strength.

Columns and labels:
[1] = target: T1, recombinant murine CD14 (mouse) (UniProt P10810); assay: co-IP; 5 μM recombinant murine CD14 with 5 μM recombinant murine CXCL10 in 400 μL of 20 mM Tris-HCl pH 7.5, 250 mM NaCl, 30 min at room temperature; immunoprecipitated with anti-CD14 antibody and protein A/G magnetic beads at 4°C; immunoblotting; both purified
T1 sequence: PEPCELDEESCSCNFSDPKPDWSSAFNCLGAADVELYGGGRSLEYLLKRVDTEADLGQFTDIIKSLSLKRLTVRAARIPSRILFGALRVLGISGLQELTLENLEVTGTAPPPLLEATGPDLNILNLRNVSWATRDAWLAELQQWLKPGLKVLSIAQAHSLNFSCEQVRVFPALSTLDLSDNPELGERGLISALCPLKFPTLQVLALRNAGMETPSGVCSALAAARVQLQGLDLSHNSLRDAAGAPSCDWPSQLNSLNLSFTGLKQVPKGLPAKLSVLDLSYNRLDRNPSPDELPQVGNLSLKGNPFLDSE

[2] = target: T2, CD14 (endogenous, RAW264.7 cells) (mouse (endogenous in RAW264.7)) (UniProt P10810); assay: co-IP; RAW264.7 cells serum-starved 5 h, treated with 100 ng/mL recombinant murine CXCL10 for 1 h, washed, lysed in RIPA buffer; lysate incubated with anti-CD14 (also anti-TLR2, anti-TLR4 or IgG) overnight at 4°C, then protein-A/G magnetic beads; immunoblotting; only the binder purified
T2 sequence: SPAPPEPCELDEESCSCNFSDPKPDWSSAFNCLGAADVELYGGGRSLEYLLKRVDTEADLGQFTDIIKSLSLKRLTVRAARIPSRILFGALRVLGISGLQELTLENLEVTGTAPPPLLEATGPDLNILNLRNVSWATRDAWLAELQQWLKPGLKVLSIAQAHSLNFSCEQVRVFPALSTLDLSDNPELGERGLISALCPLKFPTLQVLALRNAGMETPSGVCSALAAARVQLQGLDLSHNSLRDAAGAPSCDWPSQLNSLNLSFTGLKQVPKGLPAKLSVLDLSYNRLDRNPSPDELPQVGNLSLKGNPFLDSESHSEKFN

binding [1]: binds
binding [2]: binds
B1: recombinant murine CXCL10 (ligand, UniProt P17515 22-98)
chain: IPLARTVRCNCIHIDDGPVRMRAIGKLEIIPASLSCPRVEIIATMKKNDEQRCLNPESKTIKNLMKAFSQKRSKRAP
